According to publication doi:10.1101/2024.11.19.624255:
Changes are numbered by the printed parent chain. Names and notes keep the numbering of the source. Like-named read-outs stand apart in the source and are kept apart here. No constants are given. Whether binding was seen depends on the method and setting.

How the values were obtained:
Assay in all cases: differential centrifugation
dN-SARM1 E642A (human) [1] = target: dN-SARM1 E642A (human) (UniProt Q6SZW1)
dN-SARM1 E642A (human) [2] = target: dN-SARM1 E642A (human) (UniProt Q6SZW1); remark: listed apart in the source
dN-SARM1 R569A (human) = dN-SARM1 R569A (human) (UniProt Q6SZW1)
dN-SARM1 F603A (human) = dN-SARM1 F603A (human) (UniProt Q6SZW1)
dN-SARM1 L607A (human) = dN-SARM1 L607A (human) (UniProt Q6SZW1)
dN-SARM1 W662A (human) = dN-SARM1 W662A (human) (UniProt Q6SZW1)

B1: dN-SARM1 E642A (enzyme, UniProt Q6SZW1 28-724)
chain: LAVPGPDGGGGTGPWWAAGGRGPREVSPGAGTEVQDALERALPELQQALSALKQAGGARAVGAGLAEVFQLVEEAWLLPAVGREVAQGLCDAIRLDGGLDLLLRLLQAPELETRVQAARLLEQILVAENRDRVARIGLGVILNLAKEREPVELARSVAGILEHMFKHSEETCQRLVAAGGLDAVLYWCRRTDPALLRHCALALGNCALHGGQAVQRRMVEKRAAEWLFPLAFSKEDELLRLHACLAVAVLATNKEVEREVERSGTLALVEPLVASLDPGRFARCLVDASDTSQGRGPDDLQRLVPLLDSNRLEAQCIGAFYLCAEAAIKSLQGKTKVFSDIGAIQSLKRLVSYSTNGTKSALAKRALRLLGEEVPRPILPSVPSWKEAEVQTWLQQIGFSKYCESFREQQVDGDLLLRLTEEELQTDLGMKSGITRKRFFRELTELKTFANYSTCDRSNLADWLGSLDPRFRQYTYGLVSCGLDRSLLHRVSEQQLLEDCGIHLGVHRARILTAAREMLHSPLPCTGGKPSGDTPDVFISYRRNSGSQLASLLKVHLQLHGFSVFIDVEKLEAGKFEDKLIQSVMGARNFVLVLSPGALDKCMQDHDCKDWVHKAIVTALSCGKNIVPIIDGFEWPEPQVLPEDMQAVLTFNGIKWSHEYQEATIEKIIRFLQGRSSRDSSAGSDTSLEGAAPMGPT
binding (dN-SARM1 E642A (human) [1]): no binding (tested: SIR3 7 μM on cells)
binding (dN-SARM1 E642A (human) [2]): no binding (tested: SIR3-ADPR 100 μM)

B2: dN-SARM1 R569A (enzyme, UniProt Q6SZW1 28-724)
chain: B1 chain with R542A, A615E
binding (dN-SARM1 R569A (human)): no binding

B3: dN-SARM1 F603A (enzyme, UniProt Q6SZW1 28-724)
chain: B1 chain with F576A, A615E
binding (dN-SARM1 F603A (human)): no binding

B4: dN-SARM1 L607A (enzyme, UniProt Q6SZW1 28-724)
chain: B1 chain with L580A, A615E
binding (dN-SARM1 L607A (human)): no binding

B5: dN-SARM1 W662A (enzyme, UniProt Q6SZW1 28-724)
chain: B1 chain with A615E, W635A
binding (dN-SARM1 W662A (human)): no binding
